The record followed here is patent publication US10526317B2, “Benzocyanine compounds” (PIERCE BIOTECHNOLOGY, INC., priority 2012, dated 2020).

For data set [1], the system named is goat anti-mouse (GAM) antibodies. The experiment in a line: Labeling of goat anti-mouse antibody with dye NHS esters (mole dye to mole protein ratio).
The subject of data set [2] is goat anti-rabbit (GAR) antibodies. The experiment in a line: Labeling of goat anti-rabbit antibody with dye NHS esters (mole dye to mole protein ratio).

With Cy5.5, the degree of labeling in data set [1] (GAM-3X molar excess) worked out at 2.2; in data set [2] (GAR-1X molar excess), 0.7; in data set [2] (GAR-2X molar excess), 1.2; in data set [2] (GAR-3X molar excess), 1.7.

In the case of `COCCOCCOCCOCC[N+]1=C(/C=C/C=C/C=C2/N(CCOCCOCCOCCOCCC(=O)ON3C(=O)CCC3=O)c3ccc4c(S(=O)(=O)[O-])cc(S(=O)(=O)O)cc4c3C2(C)CCOCCOCCOCCOC)C(C)(CCOCCOCCOCCOC)c2c1ccc1c(S(=O)(=O)O)cc(S(=O)(=O)O)cc21` (stereo not shown) [Compound V08-15173], the “Mole Dye/Mole Protein Ratio @ 15 X” value in data set [1] (GAM, 15 X molar excess) came out at 12.4; in data set [2] (GAR, 15 X molar excess), 12.7. Moreover, the “Mole Dye/Mole Protein Ratio @ 25 X” value in data set [2] (GAR, 25 X molar excess) worked out at 19.6.
